Laboratory results: paper PMC8555990
Results are given in words; binding and its absence hold for the method and conditions named. Binding seen in cells or lysates may run through a third protein. Some binding calls cover weakened binding; strength is not graded here.

Amino acid sequences for entries named in this document (tags omitted).
UniProt Q04207: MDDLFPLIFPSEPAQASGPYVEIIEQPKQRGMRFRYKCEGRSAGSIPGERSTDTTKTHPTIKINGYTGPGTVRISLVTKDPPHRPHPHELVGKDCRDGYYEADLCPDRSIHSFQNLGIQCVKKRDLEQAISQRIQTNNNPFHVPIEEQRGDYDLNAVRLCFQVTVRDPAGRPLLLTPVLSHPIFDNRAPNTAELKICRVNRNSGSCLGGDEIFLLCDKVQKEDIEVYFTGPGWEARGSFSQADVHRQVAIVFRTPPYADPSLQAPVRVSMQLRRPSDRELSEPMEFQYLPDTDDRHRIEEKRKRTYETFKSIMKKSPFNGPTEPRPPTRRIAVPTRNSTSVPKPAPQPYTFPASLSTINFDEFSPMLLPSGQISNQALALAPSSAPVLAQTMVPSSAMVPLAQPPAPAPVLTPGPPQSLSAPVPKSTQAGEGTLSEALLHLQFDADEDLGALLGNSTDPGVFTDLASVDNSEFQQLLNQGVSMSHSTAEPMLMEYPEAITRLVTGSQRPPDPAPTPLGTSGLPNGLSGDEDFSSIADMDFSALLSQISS
UniProt Q02248: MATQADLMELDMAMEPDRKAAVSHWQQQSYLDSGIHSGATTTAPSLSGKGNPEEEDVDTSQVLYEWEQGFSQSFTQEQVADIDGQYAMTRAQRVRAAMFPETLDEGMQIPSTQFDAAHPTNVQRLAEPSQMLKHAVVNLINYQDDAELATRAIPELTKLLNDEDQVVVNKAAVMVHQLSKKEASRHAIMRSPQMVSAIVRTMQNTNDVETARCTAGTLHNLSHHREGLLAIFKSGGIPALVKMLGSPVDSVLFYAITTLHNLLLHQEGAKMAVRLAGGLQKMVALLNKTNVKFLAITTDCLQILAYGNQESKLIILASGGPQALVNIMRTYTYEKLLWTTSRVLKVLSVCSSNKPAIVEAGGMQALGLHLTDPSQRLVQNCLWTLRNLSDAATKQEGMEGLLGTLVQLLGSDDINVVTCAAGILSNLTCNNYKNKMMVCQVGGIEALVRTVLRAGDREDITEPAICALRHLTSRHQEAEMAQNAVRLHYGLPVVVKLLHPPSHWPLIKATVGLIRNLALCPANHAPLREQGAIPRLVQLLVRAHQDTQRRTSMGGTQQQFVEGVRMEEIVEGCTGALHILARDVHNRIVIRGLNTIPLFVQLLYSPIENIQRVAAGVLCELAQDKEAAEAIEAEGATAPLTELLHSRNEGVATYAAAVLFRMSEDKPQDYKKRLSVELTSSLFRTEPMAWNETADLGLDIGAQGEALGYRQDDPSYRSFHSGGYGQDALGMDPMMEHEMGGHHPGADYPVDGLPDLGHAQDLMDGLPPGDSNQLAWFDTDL

Key:
[1] = target: p65 subunit of NF-κB (mouse (endogenous in SMCC and mouse liver)) (UniProt Q04207); test: co-IP; normal mouse whole liver lysate (RIPA), p65 pulled down; blot for β-catenin
[2] = target: p65 subunit of NF-κB (mouse (endogenous in SMCC and mouse liver)) (UniProt Q04207); test: co-IP; 1 mg SMCC whole-cell lysate (RIPA), precleared, p65 antibody overnight at 4°C, Protein A/G PLUS-Agarose, washed with RIPA; blot for β-catenin
[3] = target: β-catenin (mouse (endogenous in SMCC and mouse liver)) (UniProt Q02248); test: co-IP; 1 mg SMCC whole-cell lysate (RIPA), precleared, β-catenin antibody or control IgG overnight at 4°C, Protein A/G PLUS-Agarose, washed with RIPA; blots for CFTR and p65

Substance | binding [1] | binding [2] | binding [3]
β-catenin (from UniProt Q02248 1-781) | binds | binds | –
p65 subunit of NF-κB (from UniProt Q04207 1-549) | – | – | binds
